Experimental findings from paper PMC9378673 (Nature Communications, 2022) are described below.

This series relates to IDH1 dimer. The series can be described thus: Non-denaturing MS binding stoichiometry. Set-up: species or system human. The following applies: 20 µM IDH1 variant.
Regarding `Cc1cn(C(=O)c2c(-c3c(Cl)cc(Cl)cc3Cl)noc2C(C)(C)F)c2cccc(/C=C/C(=O)O)c12` [DS-1001B], the “Stoichiometry of inhibitor binding per IDH1 dimer (non-denaturing MS)” value was 2.

Regarding `C[C@H](Nc1ccc(C#N)n(C)c1=O)c1cc2cc(Cl)ccc2[nH]c1=O` [FT-2102], the “Stoichiometry of inhibitor binding per IDH1 dimer (non-denaturing MS)” value turned out to be 2.

Turning to `COc1c(C)cc(NC(=O)c2nn(Cc3ccc(F)cc3)c3c2CN(C(=O)c2ccc[nH]2)C[C@]3(C)C(N)=O)cc1C` [GSK864], the “Stoichiometry of inhibitor binding per IDH1 dimer (non-denaturing MS)” value turned out to be 2.

With `CC(Nc1nccc(N2C(=O)OCC2C(C)C)n1)c1ccc(CN2CCC(F)(F)CC2)cc1` (centres unmarked) [IDH224], the “Stoichiometry of inhibitor binding per IDH1 dimer (non-denaturing MS)” value was determined as 2.

For the compound `N#Cc1ccnc(N2C(=O)CC[C@H]2C(=O)N(c2cncc(F)c2)[C@H](C(=O)NC2CC(F)(F)C2)c2ccccc2Cl)c1` [ivosidenib], the “Stoichiometry of inhibitor binding per IDH1 dimer (non-denaturing MS)” value was “one inhibitor molecule per dimer”.
